Source: the supplement of paper PMC10849652
The other results are listed elsewhere or left out.

Chains of the proteins cited; added tags and fusions are not shown. Lines headed by an entry give the natural chain unless they say otherwise; changes in a name come on top.
UniProt O95758: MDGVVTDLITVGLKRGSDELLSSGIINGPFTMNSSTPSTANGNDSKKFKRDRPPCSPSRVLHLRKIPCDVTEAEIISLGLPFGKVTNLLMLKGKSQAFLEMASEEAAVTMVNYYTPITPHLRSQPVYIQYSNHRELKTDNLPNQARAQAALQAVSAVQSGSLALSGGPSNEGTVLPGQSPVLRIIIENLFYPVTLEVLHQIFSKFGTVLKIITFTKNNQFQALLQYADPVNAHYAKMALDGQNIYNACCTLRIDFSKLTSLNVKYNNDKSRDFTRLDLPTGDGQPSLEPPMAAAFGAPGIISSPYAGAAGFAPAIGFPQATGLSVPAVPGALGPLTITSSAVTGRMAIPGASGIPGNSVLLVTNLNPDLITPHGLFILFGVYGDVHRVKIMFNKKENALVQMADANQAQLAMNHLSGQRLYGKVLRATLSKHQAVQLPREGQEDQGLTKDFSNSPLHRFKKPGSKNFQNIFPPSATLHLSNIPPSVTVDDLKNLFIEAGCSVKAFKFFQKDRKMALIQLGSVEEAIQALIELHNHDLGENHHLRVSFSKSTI
UniProt P20618: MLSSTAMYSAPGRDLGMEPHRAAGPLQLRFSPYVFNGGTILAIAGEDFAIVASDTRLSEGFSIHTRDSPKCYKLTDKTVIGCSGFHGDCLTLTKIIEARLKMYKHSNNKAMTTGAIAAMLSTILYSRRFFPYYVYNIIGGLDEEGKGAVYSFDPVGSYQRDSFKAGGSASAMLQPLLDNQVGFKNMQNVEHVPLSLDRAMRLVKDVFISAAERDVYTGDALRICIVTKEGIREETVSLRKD
UniProt Q8N0Z8: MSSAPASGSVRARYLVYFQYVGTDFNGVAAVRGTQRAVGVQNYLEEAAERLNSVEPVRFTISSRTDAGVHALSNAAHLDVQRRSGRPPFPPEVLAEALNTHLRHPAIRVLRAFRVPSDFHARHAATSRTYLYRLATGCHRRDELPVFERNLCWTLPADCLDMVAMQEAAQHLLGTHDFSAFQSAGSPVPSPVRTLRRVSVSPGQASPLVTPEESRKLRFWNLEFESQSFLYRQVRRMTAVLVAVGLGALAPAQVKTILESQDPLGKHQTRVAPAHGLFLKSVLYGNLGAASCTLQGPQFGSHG
UniProt P61289: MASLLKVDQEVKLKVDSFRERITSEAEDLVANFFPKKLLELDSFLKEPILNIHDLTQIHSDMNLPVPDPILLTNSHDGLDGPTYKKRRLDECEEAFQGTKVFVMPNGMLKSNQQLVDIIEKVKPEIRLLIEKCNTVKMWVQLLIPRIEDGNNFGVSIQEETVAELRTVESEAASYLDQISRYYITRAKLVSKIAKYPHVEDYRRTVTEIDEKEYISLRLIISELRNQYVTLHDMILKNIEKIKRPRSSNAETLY
UniProt Q14558: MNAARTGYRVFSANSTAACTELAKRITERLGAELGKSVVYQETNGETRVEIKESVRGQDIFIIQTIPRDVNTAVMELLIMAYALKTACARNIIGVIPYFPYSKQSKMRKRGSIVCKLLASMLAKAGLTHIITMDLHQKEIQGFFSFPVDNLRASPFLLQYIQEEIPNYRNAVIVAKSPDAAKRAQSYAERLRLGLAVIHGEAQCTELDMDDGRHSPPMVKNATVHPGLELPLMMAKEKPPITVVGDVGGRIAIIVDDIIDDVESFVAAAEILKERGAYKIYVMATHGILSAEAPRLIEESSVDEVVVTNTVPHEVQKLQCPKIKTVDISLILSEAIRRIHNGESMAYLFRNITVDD
UniProt P62191: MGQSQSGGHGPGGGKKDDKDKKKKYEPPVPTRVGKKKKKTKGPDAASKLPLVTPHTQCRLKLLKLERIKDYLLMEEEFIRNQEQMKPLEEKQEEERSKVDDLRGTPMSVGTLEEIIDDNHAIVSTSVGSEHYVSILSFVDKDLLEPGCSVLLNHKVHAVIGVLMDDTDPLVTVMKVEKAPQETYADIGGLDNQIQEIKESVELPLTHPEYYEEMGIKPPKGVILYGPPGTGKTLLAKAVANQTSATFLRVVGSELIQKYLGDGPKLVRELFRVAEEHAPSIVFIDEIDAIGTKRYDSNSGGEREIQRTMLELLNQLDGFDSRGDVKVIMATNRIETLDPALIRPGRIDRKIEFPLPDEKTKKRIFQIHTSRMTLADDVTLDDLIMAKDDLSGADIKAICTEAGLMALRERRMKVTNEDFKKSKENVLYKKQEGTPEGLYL
UniProt P49721: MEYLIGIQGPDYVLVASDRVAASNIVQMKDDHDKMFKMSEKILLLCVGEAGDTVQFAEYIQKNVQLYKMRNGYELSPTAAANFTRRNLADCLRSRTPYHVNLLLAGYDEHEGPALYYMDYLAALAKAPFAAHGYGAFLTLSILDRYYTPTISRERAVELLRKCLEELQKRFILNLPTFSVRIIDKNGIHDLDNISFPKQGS
UniProt Q9NRG1: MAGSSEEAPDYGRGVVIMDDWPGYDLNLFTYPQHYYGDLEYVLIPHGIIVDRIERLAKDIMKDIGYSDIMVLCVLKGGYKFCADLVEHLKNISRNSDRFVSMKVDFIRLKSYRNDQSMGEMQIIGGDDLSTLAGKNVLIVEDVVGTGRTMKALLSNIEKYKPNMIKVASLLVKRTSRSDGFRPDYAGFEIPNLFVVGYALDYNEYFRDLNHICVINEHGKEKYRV
UniProt P07602: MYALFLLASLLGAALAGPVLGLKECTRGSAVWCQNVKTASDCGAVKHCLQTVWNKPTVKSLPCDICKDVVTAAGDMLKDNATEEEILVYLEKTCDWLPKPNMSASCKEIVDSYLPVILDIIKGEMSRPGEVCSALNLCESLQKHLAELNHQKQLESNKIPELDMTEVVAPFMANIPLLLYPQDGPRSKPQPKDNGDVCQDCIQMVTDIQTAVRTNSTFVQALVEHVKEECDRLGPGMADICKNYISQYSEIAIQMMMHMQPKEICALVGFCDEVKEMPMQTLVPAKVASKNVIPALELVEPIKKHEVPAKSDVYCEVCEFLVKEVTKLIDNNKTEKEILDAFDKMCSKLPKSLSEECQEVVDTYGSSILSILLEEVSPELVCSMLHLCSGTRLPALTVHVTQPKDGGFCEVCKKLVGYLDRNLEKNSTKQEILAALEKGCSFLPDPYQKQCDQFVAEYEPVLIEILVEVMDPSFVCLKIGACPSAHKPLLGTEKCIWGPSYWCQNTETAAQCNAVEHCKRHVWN
UniProt P17706: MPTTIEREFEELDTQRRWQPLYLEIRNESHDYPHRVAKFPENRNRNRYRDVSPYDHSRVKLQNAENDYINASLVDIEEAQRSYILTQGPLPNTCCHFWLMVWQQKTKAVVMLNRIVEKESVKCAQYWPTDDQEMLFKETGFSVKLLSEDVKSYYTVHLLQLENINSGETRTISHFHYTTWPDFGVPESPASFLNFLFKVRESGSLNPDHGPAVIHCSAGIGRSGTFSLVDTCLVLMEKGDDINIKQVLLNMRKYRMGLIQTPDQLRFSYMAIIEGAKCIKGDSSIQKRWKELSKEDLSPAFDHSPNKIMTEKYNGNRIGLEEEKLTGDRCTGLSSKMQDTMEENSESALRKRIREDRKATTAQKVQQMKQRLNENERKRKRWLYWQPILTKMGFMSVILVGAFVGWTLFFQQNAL
UniProt P25789: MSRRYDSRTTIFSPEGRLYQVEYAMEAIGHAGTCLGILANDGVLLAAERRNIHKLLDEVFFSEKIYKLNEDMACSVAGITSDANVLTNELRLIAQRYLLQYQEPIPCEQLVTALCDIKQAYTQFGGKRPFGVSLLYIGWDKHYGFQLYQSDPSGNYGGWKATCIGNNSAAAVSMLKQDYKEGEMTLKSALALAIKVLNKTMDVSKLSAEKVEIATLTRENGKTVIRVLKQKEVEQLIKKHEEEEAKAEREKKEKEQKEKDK
UniProt P28065: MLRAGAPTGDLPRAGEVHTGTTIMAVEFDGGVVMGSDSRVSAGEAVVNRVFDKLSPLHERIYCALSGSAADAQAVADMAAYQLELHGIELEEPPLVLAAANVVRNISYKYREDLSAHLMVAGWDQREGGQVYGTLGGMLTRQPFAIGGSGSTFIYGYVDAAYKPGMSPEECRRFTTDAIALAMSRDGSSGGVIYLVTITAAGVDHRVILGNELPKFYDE
UniProt P35998: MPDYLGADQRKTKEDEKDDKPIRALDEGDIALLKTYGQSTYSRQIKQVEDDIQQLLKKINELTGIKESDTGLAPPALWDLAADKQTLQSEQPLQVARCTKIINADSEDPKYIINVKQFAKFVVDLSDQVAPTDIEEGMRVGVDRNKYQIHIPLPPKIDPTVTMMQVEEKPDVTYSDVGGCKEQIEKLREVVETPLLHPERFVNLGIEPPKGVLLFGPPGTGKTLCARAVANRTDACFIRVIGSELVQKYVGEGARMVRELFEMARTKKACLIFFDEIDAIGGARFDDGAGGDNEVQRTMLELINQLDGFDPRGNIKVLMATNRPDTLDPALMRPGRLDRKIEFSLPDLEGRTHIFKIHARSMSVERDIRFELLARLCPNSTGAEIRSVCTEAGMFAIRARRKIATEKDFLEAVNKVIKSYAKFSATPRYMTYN
UniProt Q9H939: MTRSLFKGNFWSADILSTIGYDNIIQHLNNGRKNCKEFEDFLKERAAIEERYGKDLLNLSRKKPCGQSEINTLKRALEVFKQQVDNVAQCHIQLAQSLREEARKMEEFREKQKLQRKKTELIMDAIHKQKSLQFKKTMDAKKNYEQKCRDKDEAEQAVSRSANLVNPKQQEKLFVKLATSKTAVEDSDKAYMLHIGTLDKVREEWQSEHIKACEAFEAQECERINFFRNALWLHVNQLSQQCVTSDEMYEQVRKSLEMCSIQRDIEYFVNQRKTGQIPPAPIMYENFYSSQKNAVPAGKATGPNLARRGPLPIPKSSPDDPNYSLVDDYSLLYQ
UniProt P48556: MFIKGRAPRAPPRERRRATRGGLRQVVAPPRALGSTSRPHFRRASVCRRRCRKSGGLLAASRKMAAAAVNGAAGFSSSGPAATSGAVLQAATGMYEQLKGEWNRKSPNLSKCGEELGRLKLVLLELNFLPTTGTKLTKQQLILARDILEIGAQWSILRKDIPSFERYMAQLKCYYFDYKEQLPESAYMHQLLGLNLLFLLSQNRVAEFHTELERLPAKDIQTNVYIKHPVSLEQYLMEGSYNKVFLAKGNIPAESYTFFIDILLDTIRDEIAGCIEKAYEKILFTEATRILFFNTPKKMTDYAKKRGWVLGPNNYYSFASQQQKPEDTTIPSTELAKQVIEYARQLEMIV
UniProt P25788: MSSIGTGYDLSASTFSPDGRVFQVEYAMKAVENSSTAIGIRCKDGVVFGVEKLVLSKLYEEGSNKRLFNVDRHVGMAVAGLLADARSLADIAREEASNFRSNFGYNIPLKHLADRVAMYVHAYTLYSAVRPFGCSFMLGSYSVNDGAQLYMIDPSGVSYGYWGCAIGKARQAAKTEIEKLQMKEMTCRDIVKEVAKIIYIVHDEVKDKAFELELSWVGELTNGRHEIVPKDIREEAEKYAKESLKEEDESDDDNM
UniProt P20962: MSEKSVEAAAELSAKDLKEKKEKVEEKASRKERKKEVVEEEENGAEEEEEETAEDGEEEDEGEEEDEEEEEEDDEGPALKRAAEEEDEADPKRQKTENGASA
UniProt P78330: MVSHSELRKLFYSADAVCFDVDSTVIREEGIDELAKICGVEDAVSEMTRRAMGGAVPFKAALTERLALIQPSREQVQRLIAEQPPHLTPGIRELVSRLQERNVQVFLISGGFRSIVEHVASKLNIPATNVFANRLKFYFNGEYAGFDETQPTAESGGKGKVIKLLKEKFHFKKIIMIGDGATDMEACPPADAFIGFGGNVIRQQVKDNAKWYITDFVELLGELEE
UniProt Q15185: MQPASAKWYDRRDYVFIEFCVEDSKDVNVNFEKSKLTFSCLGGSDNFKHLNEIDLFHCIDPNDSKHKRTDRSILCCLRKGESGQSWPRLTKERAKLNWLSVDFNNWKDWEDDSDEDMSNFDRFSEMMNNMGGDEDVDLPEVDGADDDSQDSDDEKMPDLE
UniProt Q96PZ0: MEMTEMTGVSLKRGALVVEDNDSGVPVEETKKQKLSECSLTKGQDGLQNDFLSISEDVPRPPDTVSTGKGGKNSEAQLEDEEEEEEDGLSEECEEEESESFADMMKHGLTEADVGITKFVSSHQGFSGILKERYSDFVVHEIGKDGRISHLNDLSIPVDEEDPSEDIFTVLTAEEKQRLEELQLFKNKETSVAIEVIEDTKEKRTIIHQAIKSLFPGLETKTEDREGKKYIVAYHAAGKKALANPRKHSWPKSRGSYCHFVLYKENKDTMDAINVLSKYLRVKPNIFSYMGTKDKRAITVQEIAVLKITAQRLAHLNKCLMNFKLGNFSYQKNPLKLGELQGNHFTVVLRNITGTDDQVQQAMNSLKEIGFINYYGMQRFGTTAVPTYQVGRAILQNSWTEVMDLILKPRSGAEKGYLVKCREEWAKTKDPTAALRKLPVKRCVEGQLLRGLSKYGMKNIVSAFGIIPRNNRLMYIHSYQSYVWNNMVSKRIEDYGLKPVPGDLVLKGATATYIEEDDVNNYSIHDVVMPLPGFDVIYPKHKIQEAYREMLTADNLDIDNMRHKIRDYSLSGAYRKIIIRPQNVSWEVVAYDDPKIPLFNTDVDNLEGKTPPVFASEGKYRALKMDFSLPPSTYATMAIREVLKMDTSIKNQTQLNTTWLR

Experiments:
Test in all cases: log2 fold change, soluble protein after heating vs DMSO (PISA); higher = thermal stabilisation; K562 lysate, 10 uM; active = over 0.2 and 3.5 SD of the protein, either way, in both replicates (recomputed)
[1] = compound: C1=CC=C(C=C1)[C@H](COC2=CC3=C(C=C2)NC(=O)N3)NC(=O)C4=CC=CN(C4=O)CC5=CC(=C(C=C5)F)F
How it was run: (§1)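 Log-two fold change in thermal stability relative to solvent controls is reported from duplicates. For each sample, crude K562 extract from dounce-homogenised pellets in PBS pH 7.4 with 1 mM MgCl2, at 1 mg/mL protein, was treated with 10 μM compound for 30 min. Aliquots heated for 3 min across 48°C-58°C were pooled, brought to 0.5% NP-40 at 4°C and cleared at 21,000xg for 90 min. The supernatant was quantified by TMTpro 16plex LC-MS/MS with channel sums equalised.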

[2] = compound: CC1=C(SC2=C1C(=N[C@H](C3=NN=C(N32)C)CC(=O)N)C4=CC=C(C=C4)Cl)C
How it was run: as §1

[3] = compound: CC1=C2C(=CC=C1)N=C(N(C2=O)C3=CC=CC=C3C)CN4C=NC5=C(N=CN=C54)N
How it was run: as §1

[4] = compound: Cc1sc2c(c1C)C(c1ccc(Cl)cc1)=N[C@@H](CC(=O)OC(C)(C)C)c1nnc(C)n1-2
How it was run: as §1

[5] = compound: c1ccc([C@@H]2C[C@H]2NC2CCNCC2)cc1
How it was run: as §1

Measured: log2 fold change

PSMD3 (UniProt O43242)
inactive: [1] -0.012 | [2] 0.017 | [3] 0.01 | [4] 0.012 | [5] 0.042

PTBP3 isoform 4 (UniProt O95758)
inactive: [1] -0.001 | [2] 0.053 | [3] 0.016 | [4] 0.067 | [5] 0.055

PTPN9 (UniProt P43378)
inactive: [1] -0.1 | [2] 0.04 | [3] 0.102 | [4] -0.051 | [5] -0.017

PSMA6 (UniProt P60900)
inactive: [1] 0.03 | [2] 0.007 | [3] -0.048 | [4] 0.013 | [5] -0.002

PTPN23 (UniProt Q9H3S7)
inactive: [1] -0.033 | [2] 0.011 | [3] 0.007 | [4] 0.024 | [5] 0

PRUNE2 isoform 3 (UniProt Q8WUY3)
inactive: [1] 0.076 | [2] 0.031 | [3] -0.112 | [4] -0.063

PTPN11 isoform 1 (UniProt Q06124)
inactive: [1] 0.003 | [2] -0.035 | [3] 0.024 | [4] 0.025 | [5] -0.003

PSMB1 (UniProt P20618)
inactive: [1] 0.03 | [2] 0.006 | [3] 0.003 | [4] -0.037 | [5] 0.017

PUS1 (UniProt Q9Y606)
inactive: [1] 0 | [2] 0.014 | [3] 0.013 | [4] -0.024 | [5] 0.029

PSMD2 (UniProt Q13200)
inactive: [1] -0.009 | [2] 0.02 | [3] 0.007 | [4] -0.005 | [5] 0.054

PSMF1 (UniProt Q92530)
inactive: [1] -0.032 | [2] 0.018 | [3] -0.017 | [4] -0.004 | [5] -0.21

PSMD9 (UniProt O00233)
inactive: [1] 0.028 | [2] -0.007 | [3] 0.008 | [4] -0.017 | [5] -0.026

PUSL1 (UniProt Q8N0Z8)
inactive: [1] -0.459 | [2] 0.222 | [3] 0.026 | [4] -0.05 | [5] -0.052

PRPSAP2 (UniProt O60256)
inactive: [1] 0.017 | [2] 0.04 | [3] -0.004 | [4] -0.007 | [5] -0.073

PSME3 isoform 2 (UniProt P61289)
inactive: [1] 0.018 | [2] -0.017 | [3] -0.003 | [4] -0.044 | [5] 0.016

PTCD3 (UniProt Q96EY7)
inactive: [1] 0.04 | [2] 0.042 | [3] 0.024 | [4] 0.06 | [5] 0.025

PTPMT1 (UniProt Q8WUK0)
inactive: [1] -0.186 | [2] 0.113 | [3] 0.012 | [4] 0.041 | [5] 0.083

PTPN1 (UniProt P18031)
inactive: [1] -0.006 | [2] 0.008 | [3] 0.01 | [4] -0.026 | [5] 0.005

12 successive records from above, quoted:
PTPN11 isoform 1 (UniProt Q06124)
inactive: [1] 0.003 | [2] -0.035 | [3] 0.024 | [4] 0.025 | [5] -0.003

PSMB1 (UniProt P20618)
inactive: [1] 0.03 | [2] 0.006 | [3] 0.003 | [4] -0.037 | [5] 0.017

PUS1 (UniProt Q9Y606)
inactive: [1] 0 | [2] 0.014 | [3] 0.013 | [4] -0.024 | [5] 0.029

PSMD2 (UniProt Q13200)
inactive: [1] -0.009 | [2] 0.02 | [3] 0.007 | [4] -0.005 | [5] 0.054

PSMF1 (UniProt Q92530)
inactive: [1] -0.032 | [2] 0.018 | [3] -0.017 | [4] -0.004 | [5] -0.21

PSMD9 (UniProt O00233)
inactive: [1] 0.028 | [2] -0.007 | [3] 0.008 | [4] -0.017 | [5] -0.026

PUSL1 (UniProt Q8N0Z8)
inactive: [1] -0.459 | [2] 0.222 | [3] 0.026 | [4] -0.05 | [5] -0.052

PRPSAP2 (UniProt O60256)
inactive: [1] 0.017 | [2] 0.04 | [3] -0.004 | [4] -0.007 | [5] -0.073

PSME3 isoform 2 (UniProt P61289)
inactive: [1] 0.018 | [2] -0.017 | [3] -0.003 | [4] -0.044 | [5] 0.016

PTCD3 (UniProt Q96EY7)
inactive: [1] 0.04 | [2] 0.042 | [3] 0.024 | [4] 0.06 | [5] 0.025

PTPMT1 (UniProt Q8WUK0)
inactive: [1] -0.186 | [2] 0.113 | [3] 0.012 | [4] 0.041 | [5] 0.083

PTPN1 (UniProt P18031)
inactive: [1] -0.006 | [2] 0.008 | [3] 0.01 | [4] -0.026 | [5] 0.005

Going on with the list.

PRPSAP1 isoform 2 (UniProt Q14558)
inactive: [1] 0.026 | [2] 0.008 | [3] 0.039 | [4] -0.002 | [5] 0.011

PSMC1 (UniProt P62191)
inactive: [1] 0 | [2] 0.012 | [3] 0.014 | [4] 0.042 | [5] -0.027

PSMB2 (UniProt P49721)
inactive: [1] 0.063 | [2] -0.053 | [3] -0.023 | [4] -0.037 | [5] -0.065

PSMD7 (UniProt P51665)
inactive: [1] -0.005 | [2] 0.019 | [3] -0.007 | [4] -0.019 | [5] 0.016

PRTFDC1 (UniProt Q9NRG1)
inactive: [1] 0.019 | [2] -0.023 | [3] -0.013 | [4] -0.002 | [5] 0.019

PTBP2 isoform 2 (UniProt Q9UKA9)
inactive: [1] -0.051 | [2] 0.059 | [3] 0.04 | [4] -0.039 | [5] -0.17

PSAP isoform 3 (UniProt P07602)
inactive: [1] 0.018 | [2] -0.007 | [3] -0.033 | [4] -0.013 | [5] 0.033

PTPN2 (UniProt P17706)
inactive: [1] -0.031 | [2] 0.017 | [3] 0.023 | [4] 0.007 | [5] 0.012

PUDP isoform 4 (UniProt Q08623)
inactive: [1] -0.06 | [2] -0.045 | [3] -0.015 | [4] -0.039 | [5] -0.076

PSMA4 (UniProt P25789)
inactive: [1] 0.029 | [2] -0.003 | [3] 0.003 | [4] -0.045 | [5] 0.012

PSMB7 (UniProt Q99436)
inactive: [1] 0.027 | [2] 0.032 | [3] -0.01 | [4] -0.049 | [5] -0.013

PSMG2 (UniProt Q969U7)
inactive: [1] -0.021 | [2] 0.008 | [3] -0.013 | [4] -0.027 | [5] -0.042

PSMD10 (UniProt O75832)
inactive: [1] -0.029 | [2] 0.017 | [3] -0.001 | [4] -0.008 | [5] -0.035

PTPRC (UniProt P08575)
inactive: [1] 0.009 | [2] 0.014 | [3] -0.019 | [4] -0.021 | [5] -0.029

PSMB9 (UniProt P28065)
inactive: [1] 0.074 | [2] 0.159 | [3] 0.111 | [4] -0.095 | [5] -0.013

PTP4A1 (UniProt Q93096)
inactive: [1] 0.047 | [2] 0.006 | [3] 0.012 | [4] -0.01 | [5] 0.041

PSMA5 (UniProt P28066)
inactive: [1] 0.001 | [2] -0.011 | [3] -0.018 | [4] -0.022 | [5] -0.087

PSMC2 (UniProt P35998)
inactive: [1] -0.018 | [2] 0.016 | [3] 0.009 | [4] 0.095 | [5] 0.025

PSTPIP2 (UniProt Q9H939)
inactive: [1] 0 | [2] -0.01 | [3] 0.046 | [4] 0 | [5] 0.027

PTK7 isoform 6 (UniProt Q13308)
inactive: [1] -0.073 | [2] -0.032 | [3] 0.03 | [4] -0.036 | [5] -0.049

PURB (UniProt Q96QR8)
inactive: [1] 0.111 | [2] -0.075 | [3] -0.008 | [4] -0.015 | [5] -0.073

PSMD8 (UniProt P48556)
inactive: [1] -0.03 | [2] -0.05 | [3] 0.027 | [4] 0.009 | [5] -0.027

PSMA3 (UniProt P25788)
inactive: [1] 0.026 | [2] 0 | [3] -0.016 | [4] -0.034 | [5] 0.04

PSMB6 (UniProt P28072)
inactive: [1] 0.027 | [2] -0.018 | [3] 0.007 | [4] 0.001 | [5] -0.016

PSMB4 (UniProt P28070)
inactive: [1] 0.012 | [2] 0 | [3] 0.008 | [4] -0.023 | [5] -0.011

PTMS (UniProt P20962)
inactive: [1] 0.037 | [2] 0.004 | [3] 0.016 | [4] 0.013 | [5] 0.007

PTGES2 (UniProt Q9H7Z7)
inactive: [1] 0.166 | [2] -0.119 | [3] -0.101 | [4] -0.006 | [5] 0.014

PSPH (UniProt P78330)
inactive: [1] -0.023 | [2] 0.068 | [3] 0.017 | [4] 0.015 | [5] -0.065

PRRC2B (UniProt Q5JSZ5)
inactive: [1] 0.054 | [2] -0.04 | [3] 0.122 | [4] 0.054 | [5] -0.007

PTGES3 (UniProt Q15185)
inactive: [1] 0.016 | [2] -0.009 | [3] -0.004 | [4] 0.027 | [5] 0.007

PTTG1 (UniProt O95997)
inactive: [1] 0.093 | [2] -0.025 | [3] -0.049 | [4] -0.01 | [5] -0.113

PSME1 (UniProt Q06323)
inactive: [1] 0.02 | [2] -0.006 | [3] -0.008 | [4] 0.002 | [5] 0.049

PTK2 (UniProt Q05397)
inactive: [1] 0.006 | [2] -0.027 | [3] -0.003 | [4] 0.023 | [5] -0.131

PTGFRN (UniProt Q9P2B2)
inactive: [1] 0.047 | [2] 0.027 | [3] -0.026 | [4] 0 | [5] 0.017

PUS7 isoform 2 (UniProt Q96PZ0)
inactive: [1] 0.007 | [2] 0.02 | [3] 0.004 | [4] -0.053 | [5] 0.017
